Experimental data as given in patent US8785423B2, “Compositions and methods of inducing endoplasmic reticulum stress response for the treatment of cell proliferative diseases” (University of Maryland, Baltimore, priority 2008, dated 2014).

Tested on: PC-3 cells
Assay: Microarray global gene expression (GeneChip Human Genome Focus Array, DAVID ontologies)
Format: cell-based
Conditions: PC-3, 20 μM, 24 hrs
Experimental: To perform the microarray experiments, PC-3 cells were treated with (95% ethanol) or 20 μM of VN/124-1. After 24 hr exposure to the agent, cells were pelleted and lysed using Qiagen RLT (Qiagen Inc.; Valencia, Calif.) buffer containing 1% β-mercaptoethanol. Total RNA was isolated using the Qiagen RNeasy-Mini Kit following manufacturer's protocol. Quantity and purity were assessed by absorption at 260 nm and 280 nm. RNA integrity was assessed using an Agilent Bioanalyzer (Agilent Technologies; Santa Clara, Calif.). Experiments were carried out in duplicate, with triplicate samples (dosed independently on 3 different days) from each experiment pooled for analysis on a single chip.
Samples were hybridized to a GeneChip® Human Genome Focus Array (Affymetrix Inc., U.S.A.) and analyzed using an Affymetrix Genechip Scanner 3000 according to manufacturer's protocol. Gene ontologies were identified using the online Database for Annotation, Visualization, and integrated Discovery (DAVID) provided by the National Institute of Allergy and Infectious Diseases and the National Institute of Health. […] Stringent criteria of a minimum EASE/P-Value threshold of 0.001 and a gene count threshold of 5 were used to identify altered gene ontologies.

SMILES: C[C@]12CC[C@H](O)CC1=CC[C@@H]1[C@@H]2CC[C@]2(C)C(n3cnc4ccccc43)=CC[C@@H]12 [VN/124-1]
- %, down-regulated ontology Biopolymer Metabolism: 55.10%
- %, down-regulated ontology Cell Cycle: 32.65%
- %, down-regulated ontology DNA Metabolism: 38.78%
- %, down-regulated ontology DNA Replication: 34.69%
- %, down-regulated ontology DNA-Dependent DNA Replication: 20.41%
- %, down-regulated ontology Macromolecule Metabolism: 57.14%
- %, down-regulated ontology Nucleobase, Nucleoside, Nucleotide and Nucleic Acid Metabolism: 48.98%
- %, down-regulated ontology Regulation of Cell Cycle: 20.41%
- %, down-regulated ontology Regulation of Progression Through Cell Cycle: 20.41%
- %, down-regulated ontology Second-Messenger-Mediated Signaling: 12.24%
- %, up-regulated ontology Amine Metabolism: 13.64%
- %, up-regulated ontology Amino Acid Metabolism: 12.12%
- %, up-regulated ontology Amino Acid and Derivative Metabolism: 12.12%
- %, up-regulated ontology Carboxylic Acid Metabolism: 13.64%
- %, up-regulated ontology Development: 27.27%
- %, up-regulated ontology Negative Regulation of Biological Process: 18.18%
- %, up-regulated ontology Negative Regulation of Cellular Process: 16.67%
- %, up-regulated ontology Nitrogen Compound Metabolism: 13.64%
- %, up-regulated ontology Organic Acid Metabolism: 13.64%
- %, up-regulated ontology Response to External Stimulus: 13.64%
- %, up-regulated ontology Response to Stress: 24.24%
- Count, down-regulated ontology Biopolymer Metabolism: 27
- Count, down-regulated ontology Cell Cycle: 16
- Count, down-regulated ontology DNA Metabolism: 19
- Count, down-regulated ontology DNA Replication: 17
- Count, down-regulated ontology DNA-Dependent DNA Replication: 10
- Count, down-regulated ontology Macromolecule Metabolism: 28
- Count, down-regulated ontology Nucleobase, Nucleoside, Nucleotide and Nucleic Acid Metabolism: 24
- Count, down-regulated ontology Regulation of Cell Cycle: 10
- Count, down-regulated ontology Regulation of Progression Through Cell Cycle: 10
- Count, down-regulated ontology Second-Messenger-Mediated Signaling: 6
- Count, up-regulated ontology Amine Metabolism: 9
- Count, up-regulated ontology Amino Acid Metabolism: 8
- Count, up-regulated ontology Amino Acid and Derivative Metabolism: 8
- Count, up-regulated ontology Carboxylic Acid Metabolism: 9
- Count, up-regulated ontology Development: 18
- Count, up-regulated ontology Negative Regulation of Biological Process: 12
- Count, up-regulated ontology Negative Regulation of Cellular Process: 11
- Count, up-regulated ontology Nitrogen Compound Metabolism: 9
- Count, up-regulated ontology Organic Acid Metabolism: 9
- Count, up-regulated ontology Response to External Stimulus: 9
- Count, up-regulated ontology Response to Stress: 16
